# The list shows a part of the results. The main result of the screen is listed elsewhere. These columns were measured beside it and carry no call. Most of these compounds were active or inconclusive in the main read-out, so they are no random draw. Potencies come from curve fits of mixed quality, noted in brackets.
# Assay: qHTS Assay for Lipid Storage Modulators in Drosophila S3 Cells;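 as to cell number change: cells counted by Cell Tracker Red CMTPX staining in the red channel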
# Details: BODIPY lipid droplet fluorescence, 18-24 h; for cell number change: measured here: cell count max response, cells fed with added oleic acid
# How it was run: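 Drosophila S3 cells got compounds at several concentrations plus oleic acid (400 uM solution). Laser-scanning cytometry with 488 nm excitation read lipid droplets at 500-530 nm and cells at 575-640 nm. Percent activity was relative to 20 uM Triacsin C.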
# [1] = measured here: cell number channel AC50, cells fed with added oleic acid
# [2] = measured here: lipid fluorescence (Fed channel) AC50, cells fed with added oleic acid
SMILES,cell number change,AC50 [1],AC50 [2]
O=C(/C=C/c1ccccc1)OCC(=O)N1CCN(c2ccccc2)CC1,3.5%,–,–
CCc1cc(SC#N)ccc1N,78.7%,–,–
O=C(Cc1ccccc1)NCCc1ccc(Cl)cc1Cl,133%,"29.1 µM [rising, single point]","23.1 µM [rising, single point]"
CCCCc1c(O)nc(SCC(=O)N2CCOCC2)n(-c2ccc(OC)cc2)c1=O,-9.58%,–,"0.103 µM [falling, single point]"
O=C(CCn1c(=O)sc2ccccc21)Nc1nc2ccccc2s1,20.6%,–,–
CC1CCCC(NC(=O)c2nn(C)c3c2CS(=O)(=O)c2ccccc2-3)C1C (stereo not drawn),-88.1%,–,"6.51 µM [rising, single point]"
Cc1ccc(S(=O)(=O)N2CCOCC2)cc1C(=O)Nc1ccncc1,-2.4%,"1.84 µM [falling, partial curve]","2.06 µM [falling, partial curve]"
Cc1ccc(C(=O)Nc2ccc3cn[nH]c3c2)cc1S(=O)(=O)N1CCCCC1,18.7%,–,–
O=C(NCc1ccco1)c1ccccc1Br,-0.391%,–,–
OCC[C@H]1C[C@@H](O)[C@H](O)[C@@]2(CCc3ccccc3CO2)O1,-10.4%,–,"6.51 µM [rising, partial curve]"
O=C(NC1=NCCS1)c1cccc(OC(F)F)c1,-11.6%,–,–
CC1(C)NC(=O)N(CCCCOc2ccccc2[N+](=O)[O-])C1=O,135%,"23.1 µM [rising, partial curve]",–
Cc1ccccc1NC(=O)NNC(=O)c1ccc2ccccc2c1,21.6%,–,"0.651 µM [rising, single point]"
CC(C)c1ccc(NC2(C#N)C(=O)Nc3ccccc32)cc1 (stereo not drawn),-32.3%,"29.1 µM [falling, single point]",–
CCOc1ccc2oc(C(=O)NNC(=O)c3csc(N4CCOCC4)n3)c(C)c2c1,11.5%,–,"6.51 µM [rising, single point]"
O=c1[nH]c(CCC2CCCC2)nc2ccccc12,10.8%,–,"11.6 µM [rising, partial curve, poor fit]"
COc1ccc(S(=O)(=O)N2CCC(C(=O)Nc3ccc4c(c3)OCCO4)CC2)cc1OC,35.7%,"8.2 µM [rising, partial curve]","6.51 µM [rising, single point]"
C=CCOc1ccc(CNc2ccc(NC(=O)CC(C)C)cc2)cc1OC,17.3%,–,"20.6 µM [rising, single point]"
COc1ccc(N(CC(C)C)S(=O)(=O)c2nnc(NC(=O)CC(C)C)s2)cc1,-29.8%,–,–
O=C(OCC(=O)c1ccc[nH]1)c1cncc(Br)c1,8.93%,–,"0.731 µM [rising, full curve]"
O=C(Nc1ccc(OCC(=O)N2CCOCC2)cc1)c1cc(F)c(F)cc1Cl,5.41%,–,"29.1 µM [rising, single point]"

SMILES,cell number change,AC50 [1],AC50 [2]
CCn1c(CNc2ccc(OC)cc2)nnc1SCC(=O)Nc1ccc(F)cc1,-28.7%,–,"8.2 µM [falling, partial curve]"
NNC(=O)c1cnn(-c2ccccc2)c1C(F)(F)F,63.9%,"23.1 µM [rising, single point]",–
Cc1ccc(SCC(=O)NC(C)(C)C)cc1,-0.363%,–,"0.92 µM [falling, full curve]"
CN(C)/C=C/C(=O)c1cccc(Oc2ncccn2)c1,-34.2%,–,–
CCn1c(=O)c(C(=O)NCc2cccnc2)c(O)c2ccccc21,-19.3%,–,"29.1 µM [rising, single point]"
O=C(CN1C(=O)c2ccccc2C1=O)Nc1nc(-c2cccc([N+](=O)[O-])c2)cs1,0.58%,–,"1.16 µM [falling, full curve]"
Cc1onc(-c2ccccc2)c1C(=O)N(Cc1ccco1)Cc1cccs1,20.8%,–,"3.26 µM [rising, partial curve]"
COc1ccccc1OCc1nc(-c2cccc([N+](=O)[O-])c2)no1,111%,"23.1 µM [rising, single point]","0.651 µM [rising, single point]"
Cc1ccc(S(=O)(=O)N2CCCCC2)cc1NC(=O)c1c(-c2ccccc2)noc1C,14.3%,–,"0.058 µM [rising, full curve, poor fit]"
CCOc1cc(C2C3=C(CCCC3=O)N(CC(=O)O)C3=C2C(=O)CCC3)ccc1OC,5.82%,–,"29.1 µM [rising, partial curve, poor fit]"
O=C(NC1CC1)C1CCCN1C(=O)NC1CCCCC1 (stereo not drawn),-4.75%,–,"0.0651 µM [rising, full curve, poor fit]"
O=C(CNc1cccc(C(F)(F)F)c1)N/N=C/c1cccc(Br)c1,-64.6%,"9.2 µM [falling, partial curve]","9.2 µM [falling, partial curve]"
O=C(O)c1nn(CCOc2cccc(Br)c2)c(=O)c2ccccc12,12.8%,–,–
COc1cc(NC(=O)Cn2cnc3sc(C)c(S(=O)(=O)N4CCOCC4)c3c2=O)cc(OC)c1OC,-21.9%,"1.03 µM [falling, full curve, poor fit]","6.51 µM [rising, single point]"
COc1cccc(OCc2nnc(SCC(=O)OCc3ccccc3)o2)c1,0.668%,–,"8.2 µM [falling, partial curve]"
Cc1oc(-c2ccccc2Cl)nc1CS(=O)CC(=O)NC1CC1 (stereo not drawn),-4.18%,–,–
O=S(=O)(NCC1CCCO1)c1ccc(Cl)c(C(F)(F)F)c1 (stereo not drawn),20.4%,–,"3.66 µM [falling, partial curve, poor fit]"
Cc1ccc(OCC(=O)N(C)CC(=O)Nc2ccc(Cl)c(C(F)(F)F)c2)c([N+](=O)[O-])n1,5.71%,–,"0.0517 µM [falling, full curve, poor fit]"
Cc1ccc(OCCSc2nnc(NC(=O)c3ccco3)s2)cc1,-45.9%,"2.59 µM [falling, full curve]","7.31 µM [falling, partial curve]"
N#CCCn1cc(C(=O)Nc2ccccn2)c(-c2ccccc2)n1,13.9%,–,"29.1 µM [rising, single point]"
CC(C)Cn1c2c(c(=O)[nH]c1=O)C(C(F)(F)F)(C(F)(F)F)N=C(CCC1CCCCC1)N2,-26%,–,"0.411 µM [falling, partial curve, poor fit]"

SMILES,cell number change,AC50 [1],AC50 [2]
Cc1cccc(-c2n[nH]c(=S)n2/N=C/c2ccc(C)s2)c1,-54.4%,"29.1 µM [falling, single point]",–
Cc1cc(=O)[nH]c(SCC(=O)Nc2c(C)n(C)n(-c3ccccc3)c2=O)n1,-3.98%,–,"20.6 µM [rising, partial curve, poor fit]"
Cn1c(Cl)c(/C=N/OC(=O)c2cccc(Cl)c2)c2ccccc21,-0.115%,"0.92 µM [falling, full curve]",–
O=C(OC(C(=O)NCc1cccs1)c1ccccn1)c1cccs1 (stereo not drawn),50.8%,"5.8 µM [rising, full curve]",–
CC1CCN(c2ccc(C(F)(F)F)cc2N)CC1,-32.9%,–,–
Cc1ccc(C2/C(=C(\O)c3ccc4c(c3)OCCO4)C(=O)C(=O)N2CCCN(C)C)o1 (stereo not drawn),16.5%,–,"6.51 µM [falling, single point]"
CC1CCCC(C)N1/N=C/c1ccc(O)c(O)c1 (stereo not drawn),47.5%,"14.6 µM [rising, single point]","29.1 µM [rising, partial curve, poor fit]"
CCOc1cc(CN2CCN(CCc3ccccc3)C(CCO)C2)ccc1OC (stereo not drawn),31.5%,"0.259 µM [rising, full curve, poor fit]",–
COc1ccc(/C(O)=C2/C(=O)C(=O)N(c3ccccn3)C2c2ccc(F)cc2)cc1 (stereo not drawn),-39.7%,"23.1 µM [falling, partial curve]","4.11 µM [falling, partial curve]"
CN(Cc1ccccc1)C(=O)COc1ccc(Br)cc1Cl,22.4%,"4.11 µM [rising, full curve, poor fit]",–
COC(=O)c1cc(=O)n(-c2ccc(F)cc2)c(=Nc2ccc(F)cc2)s1,-20.1%,–,"23.1 µM [falling, partial curve, poor fit]"
CCc1cn(C2CC(O)C(CO)O2)c(=O)[nH]c1=O (stereo not drawn),1.04%,–,"4.11 µM [falling, full curve, poor fit]"
Cc1ccc(-c2n[nH]c(=O)c3ccccc23)cc1N,24%,"0.13 µM [rising, full curve, poor fit]","0.366 µM [rising, full curve]"
Nn1c(SCC(=O)Nc2nccs2)nnc1-c1cccnc1,-0.672%,–,"29.1 µM [rising, single point]"
CCSc1nnc(NC(=O)CCNS(=O)(=O)c2ccccc2F)s1,21%,–,–
Cc1ccc(S(=O)(=O)N2c3ccccc3-c3c(ssc3=S)C2(C)C)cc1,-64.8%,"16.4 µM [falling, single point]",–
Cc1ccc(OCC(=O)NC(=S)Nc2ccc(Br)cn2)cc1,-11.6%,–,"18.4 µM [falling, single point]"
CCOC(=O)c1nnsc1-c1ccc(-c2snnc2C(=O)OCC)cc1,-1.12%,–,–
CCN(Cc1ccccc1)C(=S)Nc1cc(C(=O)OC)ccc1C(=O)OC,-18.1%,"0.731 µM [falling, partial curve, poor fit]","0.231 µM [rising, full curve, poor fit]"
O=C(O)C1Sc2[nH]c(=O)sc2C2c3cc(Cl)ccc3OC(=O)C12 (stereo not drawn),-12.4%,"0.366 µM [rising, partial curve]","32.6 µM [rising, single point]"

# An excerpt from above in order of count of non-hydrogen atoms, high to low.
SMILES,cell number change,AC50 [1],AC50 [2]
Cc1ccc(C2/C(=C(\O)c3ccc4c(c3)OCCO4)C(=O)C(=O)N2CCCN(C)C)o1 (stereo not drawn),16.5%,–,"6.51 µM [falling, single point]"
CCSc1nnc(NC(=O)CCNS(=O)(=O)c2ccccc2F)s1,21%,–,–
CCc1cn(C2CC(O)C(CO)O2)c(=O)[nH]c1=O (stereo not drawn),1.04%,–,"4.11 µM [falling, full curve, poor fit]"
